Measured values reported in PMC3805583.
Results are given in words; binding and its absence hold for the method and conditions named. Binding seen in cells or lysates may run through a third protein. Binding can be weak; no strength is given. Tags and fused reporters may be left off the sequences shown.

Molecular target: T1, C-terminally GST-tagged murine LOX-PP-WT (1-162 aa) (mouse) (UniProt P28301)
T1 sequence: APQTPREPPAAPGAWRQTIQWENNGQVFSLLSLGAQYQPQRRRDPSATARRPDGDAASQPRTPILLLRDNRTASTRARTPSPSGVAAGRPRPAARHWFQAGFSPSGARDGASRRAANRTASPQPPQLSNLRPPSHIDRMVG
Test: pull-down; GST or LOX-PP-GST (WT, deletion or point mutants) co-expressed with tagged CIN85 or CD2AP in HEK293T cells; GST pull-down from extracts; WB for the tag, for GST or for endogenous CD2AP

Substance: FLAG-tagged CIN85 NT (3 SH3 domains) (rat) (domain or fragment)
- binding: binds
